# Among all 340,000 compounds or so, about 170 (0.05%) were called active. The inconclusive results got no clear call from the source; some entries with a clear call stand among them for comparison. Calls follow the shape of the dose curve; as a rule, active = well fitted inhibition curve with a large enough effect in the signal ratio, with a control signal flat (not every such curve was filed as active); inconclusive = small, poorly fitted or top-dose-only effect, or effect the other way, or a change in a side signal; inactive = flat fitted curve, though single readings scatter; the % refers to the signal ratio. Where the call is inconclusive, the potency comes from a doubtful curve fit.
# Test: qHTS Assay to Find Inhibitors of Chronic Active B-Cell Receptor Signaling;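 as to activity change, negative = inhibition: plate controls were basal doxycycline-induced cells for no effect and cells given 10 µM MG132 for full effect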
# Conditions: ABC-DLBCL IkBa-CBG/CBR reporter, luminescence ratio (green luciferase fused to IkBa over red control in TMD8 lymphoma cells), 4 h; activity change, negative = inhibition: at 46.1 µM (top of the series)
# In short: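 TMD8 human ABC-DLBCL cells with doxycycline-inducible IκBα–green luciferase fusion and unfused red luciferase, in 0.5% FBS medium; compounds up to 46 uM, 4 h at 37C. Green/red luminescence ratio, filter-overlap corrected, fitted to concentration-response curves.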
# Potency is read from the fitted curve at half-maximal effect.
Compound,"activity change, negative = inhibition",Potency
COc1cccc(CC(=O)OCC(=O)NC2(C#N)CCCC2)c1,inconclusive: 0.273%,
COc1ccc(N2C(=O)CC(NNc3ncc(Cl)cc3Cl)C2=O)cc1 (configuration not stated),inactive,
COc1ccccc1C(=O)N/C(=C\c1ccc2c(c1)OCO2)C(=O)NCCc1nc2ccccc2[nH]1,,"inconclusive: 18.4 µM [falling, partial curve]"
C/C(N)=C(/C#N)C(=O)CSc1nc2ccccc2c(=O)n1-c1ccc(C)c(Cl)c1,,"inconclusive: 23.1 µM [falling, partial curve, poor fit]"
O=c1c2cc(Cl)ccc2nc(-c2ccccc2)n1O,,"inconclusive: 31.6 µM [rising, single point]"
Cc1ccc(NS(=O)(=O)c2ccc3c(c2)CC(=O)N3)cc1Cl,,"inconclusive: 16.4 µM [rising, partial curve, poor fit]"
CCSc1nc2ccccc2n1CCOc1ccccc1,inactive,
COc1ccc2c(c1)O[C@@H](c1cccc(C(F)(F)F)c1)[C@H](OC(=O)Nc1ccc(OC(F)F)cc1)C2=O,inconclusive: 2.82%,
O=[N+]([O-])c1ccccc1S(=O)(=O)Oc1ccc(C(=S)N2CCOCC2)cc1,inconclusive: 12.4%,
CC(C)N1C/C(=C/c2cccnc2)C(=O)/C(=C/c2cccnc2)C1,,"inconclusive: 6.51 µM [falling, partial curve, poor fit]"
COc1ccc(CCNC2CCC(c3ccccc3)CC2)cc1 (configuration not stated),inactive,
CC(C)(C)SCCNS(=O)(=O)c1ccc2ccccc2c1,inconclusive: 17%,
O=C(Nc1cc([N+](=O)[O-])ccc1N1CCCC1)c1cccs1,inactive,
CCOC(=O)c1csc(NC(=O)C2CCCCC2)n1,inconclusive: 4.55%,
Cc1ccc(S(=O)(=O)N(CC(=O)N/N=C/c2ccco2)c2cc(Cl)cc(Cl)c2)cc1,inconclusive: 15.4%,
C[C@H](CO)N1C[C@H](C)[C@@H](CN(C)Cc2ccccc2)Oc2ccc(NC(=O)Cn3cnnn3)cc2C1=O,inconclusive: 6.42%,
OCCNc1nc(-c2ccccc2)c2ccccc2n1,inconclusive: 1.5%,
CCc1ccc2[nH]c(=O)c(CN(CCN(CC)CC)C(=S)NCc3ccco3)cc2c1,,"inconclusive: 15.8 µM [falling, partial curve]"
CCCS(=O)(=O)Nc1ccc2cn[nH]c2c1,,"inconclusive: 17.8 µM [falling, partial curve, poor fit]"
CCN(CC)S(=O)(=O)c1cccc(C(=O)Nc2ccc3c(c2)OCO3)c1,inconclusive: 2.88%,
CN=c1scc(-c2ccco2)n1/N=C/c1ccc(O)c(O)c1,,"inconclusive: 25.1 µM [falling, single point]"

Compound,"activity change, negative = inhibition",Potency
C=C(C)C(=O)Oc1ccc(N2C(=O)[C@@H]3C4C=CC(C4)[C@@H]3C2=O)cc1,inconclusive: -12.4%,
O=C(c1ccc(CS(=O)(=O)c2ccc(Br)cc2)o1)N1CCCC1,inconclusive: 3.22%,
Cc1ccccc1OCC(=O)Nc1nnc(S(=O)(=O)N2CCCC2)s1,,"inconclusive: 3.16 µM [falling, full curve, poor fit]"
O=C(NCc1ccccc1)C1CCN(C(=O)NCc2ccccc2)CC1,inconclusive: -2.69%,
CC(=O)CCS(=O)(=O)c1ccc(NC(C)=O)cc1,,"inconclusive: 29.1 µM [falling, single point]"
CC(=O)NCCn1c(SCc2ccc(C)cc2C)nc2ccccc2c1=O,inactive,
O=C1NN=C(c2ccccc2)CC1c1c[nH]c2ccccc12 (configuration not stated),inconclusive: -12.5%,
C[C@H]1COC(=O)[C@@H](Cc2ccc(F)cc2)C/C=C\C[C@@H](CC(=O)NCCO)C(=O)N1,inconclusive: 0.324%,
N#Cc1cccc(C#N)c1Oc1ccc(S(=O)(=O)Nc2ccc(Cl)cc2)cc1,,"inconclusive: 35.5 µM [rising, partial curve, poor fit]"
N#C/C(=C\c1ccc(O)cc1)c1nc2ccccc2o1,inconclusive: 15.8%,
Clc1cccc(Cl)c1/C=C/c1ccn[nH]1,inconclusive: -19.2%,
OC(c1ccccc1)c1nc2ccccc2[nH]1 (configuration not stated),inconclusive: 5.9%,
O=C(COC(=O)c1c2c(nc3ccccc13)/C(=C/c1cccc([N+](=O)[O-])c1)CCC2)NC1CCS(=O)(=O)C1 (configuration not stated),inconclusive: 15.8%,
NC(=O)c1cn(-c2ccccc2)nc1-c1cccnc1,inactive,
O=C(Nc1cccc(-c2nc3ncccc3o2)c1)c1sc2cc(Cl)ccc2c1Cl,inconclusive: 15.3%,
Cc1c(C(=O)N2CCOCC2)sc2nc(-c3ccccc3)cn12,inactive,
COc1ccc(C=O)cc1OS(=O)(=O)c1ccc(NC(C)=O)cc1,,active: 18.4 µM
O=C(CO)N/N=C/c1c2ccccc2cc2ccccc12,inactive,
CC(OC(=O)C1CC1)C(=O)Nc1ccc([N+](=O)[O-])cc1Cl (configuration not stated),inconclusive: 5.23%,
COc1ccc(S(=O)(=O)Nc2nc3ccccc3s2)cc1,,"inconclusive: 5.8 µM [rising, full curve, poor fit]"
Cc1cc(C)cc(NC(=O)N2CCNC(=O)C2CC(=O)Nc2cc(Cl)ccc2Cl)c1 (configuration not stated),inconclusive: 0.478%,

# In the list so far, these have a Cl atom:
Compound,"activity change, negative = inhibition",Potency
COc1ccc(N2C(=O)CC(NNc3ncc(Cl)cc3Cl)C2=O)cc1 (configuration not stated),inactive,
C/C(N)=C(/C#N)C(=O)CSc1nc2ccccc2c(=O)n1-c1ccc(C)c(Cl)c1,,"inconclusive: 23.1 µM [falling, partial curve, poor fit]"
O=c1c2cc(Cl)ccc2nc(-c2ccccc2)n1O,,"inconclusive: 31.6 µM [rising, single point]"
Cc1ccc(NS(=O)(=O)c2ccc3c(c2)CC(=O)N3)cc1Cl,,"inconclusive: 16.4 µM [rising, partial curve, poor fit]"
Cc1ccc(S(=O)(=O)N(CC(=O)N/N=C/c2ccco2)c2cc(Cl)cc(Cl)c2)cc1,inconclusive: 15.4%,
N#Cc1cccc(C#N)c1Oc1ccc(S(=O)(=O)Nc2ccc(Cl)cc2)cc1,,"inconclusive: 35.5 µM [rising, partial curve, poor fit]"
Clc1cccc(Cl)c1/C=C/c1ccn[nH]1,inconclusive: -19.2%,
O=C(Nc1cccc(-c2nc3ncccc3o2)c1)c1sc2cc(Cl)ccc2c1Cl,inconclusive: 15.3%,
CC(OC(=O)C1CC1)C(=O)Nc1ccc([N+](=O)[O-])cc1Cl (configuration not stated),inconclusive: 5.23%,
Cc1cc(C)cc(NC(=O)N2CCNC(=O)C2CC(=O)Nc2cc(Cl)ccc2Cl)c1 (configuration not stated),inconclusive: 0.478%,

# Another view of two compounds above.
Compound | activity change, negative = inhibition | Potency
C=C(C)C(=O)Oc1ccc(N2C(=O)[C@@H]3C4C=CC(C4)[C@@H]3C2=O)cc1 | inconclusive: -12.4% | 
N#Cc1cccc(C#N)c1Oc1ccc(S(=O)(=O)Nc2ccc(Cl)cc2)cc1 |  | inconclusive: 35.5 µM [rising, partial curve, poor fit]

# The list goes on.

Compound,"activity change, negative = inhibition",Potency
CC(C)(C)N(Cc1cc2ccccc2[nH]c1=O)C(=O)C1CCCCC1,inconclusive: 2.18%,
CCOC(=O)Nc1nc(-c2ccccc2)c(C(=O)c2ccc(Cl)cc2)s1,inconclusive: 4.26%,
COCCNC(=O)C(c1ccncc1)N(C(=O)Cn1nnc2ccccc21)c1ccc(OC)cc1 (configuration not stated),inconclusive: 9.05%,
O=C(Nc1ccc(F)cc1)Nc1cc(S(=O)(=O)N2CCOCC2)ccc1N1CCCC1,inconclusive: 4.47%,
N#C/C(=N/O)c1nc(-c2ccc(F)cc2)cs1,inconclusive: 3.1%,
CC(C)Cn1c(N)c(C(=O)CSc2ccc3c(c2)OCCO3)c(=O)n(C)c1=O,inactive,
Cn1c(=O)oc2cc(S(=O)(=O)Nc3ccc4c(c3)OCO4)ccc21,inconclusive: -11%,
Cc1c(C)c(C)c(CN2CCCC2)c(C)c1C,inconclusive: 8.18%,
COC(=O)CC1COc2ccccc2N1S(=O)(=O)c1ccc(OC)cc1 (configuration not stated),inconclusive: -11.1%,
Cc1cccn2c(=O)c3cc(C#N)c(=NC(=O)c4ccco4)n(Cc4ccco4)c3nc12,inconclusive: 13.7%,
O=C(/C=C/c1ccccc1)NC1CCSC1=O (configuration not stated),,"inconclusive: 32.6 µM [falling, partial curve, poor fit]"
CCOC(=O)c1c(NC(=O)COc2ccccc2F)sc2c1CC(C)(C)NC2(C)C,inactive,
O=C(CSc1ccsc1[N+](=O)[O-])Nc1cc(F)ccc1F,inconclusive: -1.16%,
O=C(CSc1nnnn1C1CCCC1)N1CCCc2ccccc21,inconclusive: 4.79%,
Cc1nc(NC(=O)CSC2=NCCS2)sc1C(=O)N(C)C,inconclusive: 4.16%,
Cc1ccc(OCC(=O)Nc2ccc(-c3nc4ncccc4o3)cc2)c(C)c1,inconclusive: 12.4%,
CCC(=O)Nc1ccc2c(c1)nc1n2CCSC1,inconclusive: 5.58%,
O=C(COc1ccccc1)Nc1ccc(-c2ccc(N3CCOCC3)nn2)cc1,inactive,
CC(=O)NC(CC(=O)NNC(=O)c1cc2ccccc2cc1O)c1ccccc1 (configuration not stated),inactive,
CCN(C/C=C/c1ccccc1OC)Cc1ccccc1,inactive,
CCCc1c(C)nc2ccccc2c1SCCC#N,inconclusive: -5%,

Compound,"activity change, negative = inhibition",Potency
NC(=S)N=Nc1c(O)n(CCCl)c2ccc(Br)cc12,,"inconclusive: 6.31 µM [falling, single point]"
Fc1ccc(COc2ccc(-c3nnco3)cc2)cc1,inconclusive: 2.02%,
COc1cccc(/C=C2\C(=O)N(c3cccc(C)c3)C(=O)c3ccccc32)c1,inconclusive: -11.2%,
COc1cc2c(cc1OC)C(C)N(C(=O)Nc1cc(C)cc(C)c1)CC2 (configuration not stated),,"inconclusive: 12.6 µM [falling, partial curve, poor fit]"
Cc1cccc(NS(=O)(=O)c2ccc(-c3cnc(C4CC4)o3)cc2)c1,,"inconclusive: 22.4 µM [falling, partial curve]"
COc1cccc(NC(=O)c2cc(C(=O)Nc3cccc(OC)c3)n(C)n2)c1,,"inconclusive: 10.3 µM [falling, partial curve, poor fit]"
Cc1ccccc1NC(=S)NCc1ccc(F)cc1,inactive,
O=C(COC(=O)c1cccc([N+](=O)[O-])c1)Nc1ncc(Br)s1,inactive,
Cc1ccsc1-c1nc(CN2C[C@@H](C)O[C@@H](C)C2)c(C)o1,inconclusive: 6.99%,
COC(=O)c1cccnc1Oc1ccccc1,inconclusive: -4.04%,
CCOc1cc(-c2cc(-c3ccc(N)cc3)nc(N)c2C#N)ccc1O,,"inconclusive: 5.62 µM [falling, partial curve, poor fit]"
CSCCC(NC(=O)c1ccc([N+](=O)[O-])cc1Cl)C(=O)OCC(=O)C12CC3CC(CC(C3)C1)C2 (configuration not stated),inconclusive: -5.26%,
CCc1ccc2nc(NC(=O)c3cc(C)on3)sc2c1,,"inconclusive: 15.8 µM [falling, partial curve]"
O=C(CCSc1ccc(Cl)cc1)c1ccco1,inconclusive: -17.4%,
O=C(CN1C(=O)COc2ccccc21)NCCCN1CCOCC1,inactive,
Cc1cc(C)cc(NC(=O)CCc2c(C)nn(-c3ccc(N4CCCCC4)nn3)c2C)c1,inconclusive: -9.47%,
Cc1cccc(Sc2c(C=O)c3ccccc3n2C)c1,inconclusive: -2.27%,
COc1ccc(-c2nc(C(N)=O)c3[nH]c(=O)n(-c4cccc(Cl)c4)c3n2)cc1OC,inconclusive: 25.7%,
COc1ccc(N(CC(=O)Nc2cc([N+](=O)[O-])ccc2C)S(C)(=O)=O)cc1OC,,"inconclusive: 5.62 µM [falling, full curve, poor fit]"
